Reference: publication PMC11024185
Residue numbers refer to the chain shown, from its start. No constants are given. Whether binding was seen depends on the method and setting. In cells and extracts the contact can be indirect. Here binding means that the protein was enriched with, or labelled near, the bait; the list need not be complete. Where a sequence is shown, tags or fusion partners need not be part of it. One block for each molecule: values may come before it.

By UniProt entry, the sequences of proteins in these tests, tags left out.
UniProt Q07915: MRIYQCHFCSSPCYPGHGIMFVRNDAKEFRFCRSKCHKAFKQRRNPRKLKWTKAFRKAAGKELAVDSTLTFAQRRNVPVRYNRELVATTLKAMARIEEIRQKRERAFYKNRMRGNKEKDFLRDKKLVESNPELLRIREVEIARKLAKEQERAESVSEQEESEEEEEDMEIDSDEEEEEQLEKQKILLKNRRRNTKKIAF

How the values were obtained:
[1] = molecular target: T1, Ssf1-3xFLAG-3C-2xProteinA (S. cerevisiae) (UniProt P38789); assay: affinity purification with mass spectrometry; split-tag purification of pre-60S particles from yeast overexpressing dbp10 R522V (β-estradiol, 1 h): IgG Sepharose on Ssf1-2xProteinA, 3C cleavage, then Strep-Tactin on Dbp10 R522V, bdNEDD8 protease elution; 50 mM Bis-Tris-Propane pH 8.0, 125 mM NaCl, 25 mM KCl, 10 mM MgCl2; Coomassie-stained 4-20% SDS-PAGE, bands named by molecular weight, ambiguous bands by mass spectrometry
T1 sequence: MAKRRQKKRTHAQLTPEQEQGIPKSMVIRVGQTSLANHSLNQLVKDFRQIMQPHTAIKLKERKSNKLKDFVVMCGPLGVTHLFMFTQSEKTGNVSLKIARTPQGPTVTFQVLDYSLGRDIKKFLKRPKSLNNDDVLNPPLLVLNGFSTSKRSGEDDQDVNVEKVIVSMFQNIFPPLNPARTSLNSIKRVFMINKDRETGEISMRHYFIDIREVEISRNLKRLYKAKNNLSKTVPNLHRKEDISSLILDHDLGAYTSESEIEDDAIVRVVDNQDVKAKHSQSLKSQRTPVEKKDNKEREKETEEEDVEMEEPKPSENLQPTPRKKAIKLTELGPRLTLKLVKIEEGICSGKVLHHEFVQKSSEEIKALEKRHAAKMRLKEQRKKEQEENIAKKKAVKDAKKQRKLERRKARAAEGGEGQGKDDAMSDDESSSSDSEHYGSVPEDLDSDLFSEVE

[2] = molecular target: T1, Ssf1-3xFLAG-3C-2xProteinA (S. cerevisiae); assay: affinity purification with mass spectrometry; split-tag purification of pre-60S particles from steady state DBP10 yeast: IgG Sepharose on Ssf1-2xProteinA, 3C cleavage, then Strep-Tactin on 2xStrep-Dbp10, desthiobiotin elution; buffers with 50 µM ADP-BeF3; Coomassie-stained 4-20% SDS-PAGE, bands named by molecular weight, ambiguous bands by mass spectrometry
[3] = molecular target: T2, Noc2-3xFLAG-3C-2xProteinA (S. cerevisiae) (UniProt P39744); assay: affinity purification with mass spectrometry; split-tag purification of pre-60S particles from SPB4-AID yeast without and with auxin (0.5 mM IAA, 45 min): IgG Sepharose on Noc2-2xProteinA, 3C cleavage, then Strep-Tactin on 2xStrep-Dbp10; buffers with 50 µM ADP-BeF3; Coomassie-stained 4-20% SDS-PAGE, bands named by molecular weight, ambiguous bands by mass spectrometry; auxin gave ~10-fold enrichment of the particle
T2 sequence: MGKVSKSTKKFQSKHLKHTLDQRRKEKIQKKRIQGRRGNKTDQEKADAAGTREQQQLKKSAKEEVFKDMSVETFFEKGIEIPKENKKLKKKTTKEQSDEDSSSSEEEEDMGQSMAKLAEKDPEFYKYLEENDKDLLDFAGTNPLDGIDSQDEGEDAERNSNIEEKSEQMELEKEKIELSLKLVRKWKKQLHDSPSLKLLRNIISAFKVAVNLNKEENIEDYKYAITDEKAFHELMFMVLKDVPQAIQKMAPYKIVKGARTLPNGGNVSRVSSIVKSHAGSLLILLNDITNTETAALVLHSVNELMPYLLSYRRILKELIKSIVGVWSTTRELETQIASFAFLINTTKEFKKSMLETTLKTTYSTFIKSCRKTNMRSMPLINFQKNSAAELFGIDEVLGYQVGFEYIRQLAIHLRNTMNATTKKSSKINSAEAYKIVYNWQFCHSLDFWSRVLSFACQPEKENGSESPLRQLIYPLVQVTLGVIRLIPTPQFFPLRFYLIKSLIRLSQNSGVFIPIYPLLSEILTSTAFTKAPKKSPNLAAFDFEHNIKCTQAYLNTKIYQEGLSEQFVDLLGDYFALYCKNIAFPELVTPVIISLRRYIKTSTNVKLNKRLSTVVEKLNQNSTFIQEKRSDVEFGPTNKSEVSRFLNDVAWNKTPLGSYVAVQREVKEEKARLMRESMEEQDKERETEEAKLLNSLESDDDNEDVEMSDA

[4] = molecular target: T1, Ssf1-3xFLAG-3C-2xProteinA (S. cerevisiae); assay: affinity purification with mass spectrometry; purification of pre-60S intermediates from a drs1 R569Q strain by tags on Drs1 R569Q (3x-Strep) and Ssf1 (2x-ProtA); Coomassie-stained 4-20% SDS-PAGE
[5] = molecular target: T3, Dbp10 R522V (sfGFP-3xSTREP-bdNEDD8-MYC-dbp10 R522V) (S. cerevisiae) (UniProt Q12389); assay: affinity purification with mass spectrometry; split-tag purification of pre-60S particles from yeast overexpressing dbp10 R522V (β-estradiol, 1 h): IgG Sepharose on Ssf1-2xProteinA, 3C cleavage, then Strep-Tactin on Dbp10 R522V, bdNEDD8 protease elution; 50 mM Bis-Tris-Propane pH 8.0, 125 mM NaCl, 25 mM KCl, 10 mM MgCl2; Coomassie-stained 4-20% SDS-PAGE, bands named by molecular weight, ambiguous bands by mass spectrometry
T3 sequence: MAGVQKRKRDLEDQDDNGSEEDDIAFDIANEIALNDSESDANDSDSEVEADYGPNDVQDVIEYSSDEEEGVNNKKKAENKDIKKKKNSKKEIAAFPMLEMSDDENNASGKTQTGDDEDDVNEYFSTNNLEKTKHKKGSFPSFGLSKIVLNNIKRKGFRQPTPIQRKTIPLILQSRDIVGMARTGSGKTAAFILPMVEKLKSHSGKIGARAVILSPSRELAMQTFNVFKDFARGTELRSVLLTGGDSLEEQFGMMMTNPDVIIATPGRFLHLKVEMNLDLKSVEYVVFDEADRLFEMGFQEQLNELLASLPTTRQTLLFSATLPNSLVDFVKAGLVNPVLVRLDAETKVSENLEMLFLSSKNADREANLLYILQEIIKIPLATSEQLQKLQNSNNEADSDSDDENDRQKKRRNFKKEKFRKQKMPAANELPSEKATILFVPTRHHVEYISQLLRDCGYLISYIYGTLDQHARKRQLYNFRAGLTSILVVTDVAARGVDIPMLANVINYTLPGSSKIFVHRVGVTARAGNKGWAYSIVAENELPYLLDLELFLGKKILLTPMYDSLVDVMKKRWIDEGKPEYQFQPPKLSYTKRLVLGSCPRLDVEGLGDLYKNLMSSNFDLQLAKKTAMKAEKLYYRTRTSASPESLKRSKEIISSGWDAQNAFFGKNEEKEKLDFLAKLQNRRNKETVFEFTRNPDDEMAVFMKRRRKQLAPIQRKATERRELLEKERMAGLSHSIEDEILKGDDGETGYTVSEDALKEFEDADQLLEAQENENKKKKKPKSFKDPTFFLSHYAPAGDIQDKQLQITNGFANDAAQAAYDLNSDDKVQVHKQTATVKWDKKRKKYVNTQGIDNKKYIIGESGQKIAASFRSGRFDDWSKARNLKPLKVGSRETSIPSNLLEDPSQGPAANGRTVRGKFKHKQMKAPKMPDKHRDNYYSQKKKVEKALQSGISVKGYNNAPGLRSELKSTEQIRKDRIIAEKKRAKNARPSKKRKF

[6] = molecular target: T4, Dbp10 (2xStrep-bdNEDD8-DBP10) (S. cerevisiae) (UniProt Q12389); assay: affinity purification with mass spectrometry; split-tag purification of pre-60S particles from steady state DBP10 yeast: IgG Sepharose on Ssf1-2xProteinA, 3C cleavage, then Strep-Tactin on 2xStrep-Dbp10, desthiobiotin elution; buffers with 50 µM ADP-BeF3; Coomassie-stained 4-20% SDS-PAGE, bands named by molecular weight, ambiguous bands by mass spectrometry
T4 sequence: T3 sequence with V522R

[7] = molecular target: T5, Drs1 R569Q (3x-Strep-Drs1 R569Q) (S. cerevisiae) (UniProt P32892); assay: affinity purification with mass spectrometry; purification of pre-60S intermediates from a drs1 R569Q strain by tags on Drs1 R569Q (3x-Strep) and Ssf1 (2x-ProtA); Coomassie-stained 4-20% SDS-PAGE
T5 sequence: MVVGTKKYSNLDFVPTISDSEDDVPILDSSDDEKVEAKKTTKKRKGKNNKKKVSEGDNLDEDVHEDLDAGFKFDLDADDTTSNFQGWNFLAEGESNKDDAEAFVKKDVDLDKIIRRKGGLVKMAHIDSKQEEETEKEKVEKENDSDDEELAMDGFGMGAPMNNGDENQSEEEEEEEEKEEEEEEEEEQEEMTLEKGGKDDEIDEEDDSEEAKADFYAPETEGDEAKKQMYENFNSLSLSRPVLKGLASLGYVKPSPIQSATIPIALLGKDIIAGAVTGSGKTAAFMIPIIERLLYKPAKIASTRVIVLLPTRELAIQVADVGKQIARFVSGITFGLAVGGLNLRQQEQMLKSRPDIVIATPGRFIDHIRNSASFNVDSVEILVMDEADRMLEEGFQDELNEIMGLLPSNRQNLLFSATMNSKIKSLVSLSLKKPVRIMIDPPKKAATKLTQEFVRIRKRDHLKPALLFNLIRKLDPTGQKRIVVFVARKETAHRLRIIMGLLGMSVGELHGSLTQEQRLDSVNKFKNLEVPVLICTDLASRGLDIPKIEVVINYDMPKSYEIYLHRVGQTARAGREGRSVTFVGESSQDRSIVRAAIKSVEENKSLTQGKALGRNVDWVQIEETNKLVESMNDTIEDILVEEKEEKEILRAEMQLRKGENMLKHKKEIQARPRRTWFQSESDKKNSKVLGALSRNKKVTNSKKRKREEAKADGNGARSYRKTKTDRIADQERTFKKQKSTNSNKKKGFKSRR

binding [1]: binds
binding [2]: binds
binding [3]: binds
binding [4]: binds
Molecule: Rlp24 (from UniProt Q07915 1-199)

binding [1]: binds
binding [2]: binds
binding [3]: binds
binding [4]: binds
B1: Nsa2 (protein, UniProt P40078 1-261)
chain: MPQNDYIERHIKQHGKRLDHEERKRKREARESHKISERAQKLTGWKGKQFAKKRYAEKVSMRKKIKAHEQSKVKGSSKPLDTDGDALPTYLLDREQNNTAKAISSSIKQKRLEKADKFSVPLPKVRGISEEEMFKVIKTGKSRSKSWKRMITKHTFVGEGFTRRPVKMERIIRPSALRQKKANVTHPELGVTVFLPILAVKKNPQSPMYTQLGVLTKGTIIEVNVSELGMVTAGGKVVWGKYAQVTNEPDRDGCVNAVLLV

binding [5]: binds
binding [6]: binds
binding [7]: binds
B2: Ssf1-3xFLAG-3C-2xProteinA (protein, UniProt P38789 1-453)
chain: T1 sequence
